From the supplement of paper PMC10849652
This is one part of the list.

Sequences of proteins named here, by UniProt entry; tags and fusion partners are left off. A change or cut given only in a name is not applied to a line headed by its entry.
UniProt Q6ZSZ5: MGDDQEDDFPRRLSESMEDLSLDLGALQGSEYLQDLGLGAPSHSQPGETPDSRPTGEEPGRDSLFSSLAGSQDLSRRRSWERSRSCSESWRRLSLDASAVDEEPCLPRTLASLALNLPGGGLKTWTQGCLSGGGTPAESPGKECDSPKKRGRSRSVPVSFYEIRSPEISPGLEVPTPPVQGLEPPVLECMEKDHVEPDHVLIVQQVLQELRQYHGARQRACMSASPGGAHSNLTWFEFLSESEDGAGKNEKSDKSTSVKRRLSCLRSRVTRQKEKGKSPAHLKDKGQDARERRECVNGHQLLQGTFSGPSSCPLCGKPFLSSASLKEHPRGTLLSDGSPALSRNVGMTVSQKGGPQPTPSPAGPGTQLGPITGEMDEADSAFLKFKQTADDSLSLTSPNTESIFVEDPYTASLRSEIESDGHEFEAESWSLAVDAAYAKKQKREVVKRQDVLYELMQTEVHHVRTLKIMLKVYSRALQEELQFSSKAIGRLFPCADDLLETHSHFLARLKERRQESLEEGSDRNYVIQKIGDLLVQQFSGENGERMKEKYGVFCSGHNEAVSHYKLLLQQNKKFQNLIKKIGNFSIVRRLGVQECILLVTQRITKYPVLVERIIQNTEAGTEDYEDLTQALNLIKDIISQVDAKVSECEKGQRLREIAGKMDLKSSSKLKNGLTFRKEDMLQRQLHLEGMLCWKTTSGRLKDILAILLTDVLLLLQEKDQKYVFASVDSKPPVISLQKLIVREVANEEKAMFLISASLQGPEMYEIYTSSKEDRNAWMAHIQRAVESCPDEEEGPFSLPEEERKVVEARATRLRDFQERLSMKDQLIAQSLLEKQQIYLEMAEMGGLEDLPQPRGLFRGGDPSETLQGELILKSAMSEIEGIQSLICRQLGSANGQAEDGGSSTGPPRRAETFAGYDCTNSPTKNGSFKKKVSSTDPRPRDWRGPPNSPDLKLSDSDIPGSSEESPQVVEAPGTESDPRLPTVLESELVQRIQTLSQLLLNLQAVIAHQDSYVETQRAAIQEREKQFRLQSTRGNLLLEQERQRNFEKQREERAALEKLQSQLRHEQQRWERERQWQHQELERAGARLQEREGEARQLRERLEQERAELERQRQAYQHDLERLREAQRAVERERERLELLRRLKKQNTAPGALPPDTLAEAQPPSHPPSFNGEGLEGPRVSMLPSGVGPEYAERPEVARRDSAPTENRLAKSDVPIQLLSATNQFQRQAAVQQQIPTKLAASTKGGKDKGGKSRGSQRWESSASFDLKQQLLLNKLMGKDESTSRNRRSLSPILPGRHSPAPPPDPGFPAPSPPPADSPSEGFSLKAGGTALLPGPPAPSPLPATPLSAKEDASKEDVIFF
UniProt Q92974: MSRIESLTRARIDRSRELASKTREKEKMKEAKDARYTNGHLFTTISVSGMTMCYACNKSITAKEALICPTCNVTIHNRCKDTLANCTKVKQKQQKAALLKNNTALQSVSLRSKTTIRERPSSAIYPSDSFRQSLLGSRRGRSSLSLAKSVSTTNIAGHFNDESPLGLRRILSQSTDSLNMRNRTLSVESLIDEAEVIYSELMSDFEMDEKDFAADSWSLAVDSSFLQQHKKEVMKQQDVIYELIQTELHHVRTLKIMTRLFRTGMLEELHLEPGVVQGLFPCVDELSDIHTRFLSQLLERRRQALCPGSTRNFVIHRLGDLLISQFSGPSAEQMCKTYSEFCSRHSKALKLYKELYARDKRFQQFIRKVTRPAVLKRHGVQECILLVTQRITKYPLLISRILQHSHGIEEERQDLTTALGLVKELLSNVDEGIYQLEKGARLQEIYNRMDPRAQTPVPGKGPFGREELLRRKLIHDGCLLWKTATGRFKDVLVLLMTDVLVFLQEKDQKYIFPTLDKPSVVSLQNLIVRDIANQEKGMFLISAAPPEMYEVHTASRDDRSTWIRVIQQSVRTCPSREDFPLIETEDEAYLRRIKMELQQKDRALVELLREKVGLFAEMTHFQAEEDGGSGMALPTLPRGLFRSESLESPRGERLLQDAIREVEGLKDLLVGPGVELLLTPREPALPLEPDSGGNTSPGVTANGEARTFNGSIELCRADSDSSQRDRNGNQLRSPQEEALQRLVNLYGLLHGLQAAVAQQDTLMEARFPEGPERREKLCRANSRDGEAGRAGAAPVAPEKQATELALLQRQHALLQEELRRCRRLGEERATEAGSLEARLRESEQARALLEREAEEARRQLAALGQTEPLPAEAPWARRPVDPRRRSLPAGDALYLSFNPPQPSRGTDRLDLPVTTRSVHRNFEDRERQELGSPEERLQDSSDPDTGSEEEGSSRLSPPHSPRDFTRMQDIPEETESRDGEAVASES
UniProt P53365: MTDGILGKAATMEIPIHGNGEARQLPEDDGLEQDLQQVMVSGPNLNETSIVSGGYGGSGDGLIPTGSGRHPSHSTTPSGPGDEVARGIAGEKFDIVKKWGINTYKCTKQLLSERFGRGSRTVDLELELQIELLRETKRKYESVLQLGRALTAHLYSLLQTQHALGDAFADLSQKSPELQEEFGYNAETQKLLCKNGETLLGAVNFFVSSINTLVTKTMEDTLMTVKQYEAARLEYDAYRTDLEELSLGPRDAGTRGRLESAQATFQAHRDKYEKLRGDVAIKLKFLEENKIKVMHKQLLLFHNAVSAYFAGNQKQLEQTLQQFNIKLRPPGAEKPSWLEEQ
UniProt Q9Y2Y0: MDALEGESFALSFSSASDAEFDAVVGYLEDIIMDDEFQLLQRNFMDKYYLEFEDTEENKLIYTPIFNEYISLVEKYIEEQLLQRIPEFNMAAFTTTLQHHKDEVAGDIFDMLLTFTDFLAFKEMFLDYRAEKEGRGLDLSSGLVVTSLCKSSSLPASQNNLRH
UniProt Q9NVJ2: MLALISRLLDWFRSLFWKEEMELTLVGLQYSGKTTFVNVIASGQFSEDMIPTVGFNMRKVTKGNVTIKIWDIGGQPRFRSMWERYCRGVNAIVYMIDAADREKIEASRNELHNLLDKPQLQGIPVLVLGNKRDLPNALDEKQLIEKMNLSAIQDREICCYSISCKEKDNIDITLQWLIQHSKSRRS
UniProt P36404: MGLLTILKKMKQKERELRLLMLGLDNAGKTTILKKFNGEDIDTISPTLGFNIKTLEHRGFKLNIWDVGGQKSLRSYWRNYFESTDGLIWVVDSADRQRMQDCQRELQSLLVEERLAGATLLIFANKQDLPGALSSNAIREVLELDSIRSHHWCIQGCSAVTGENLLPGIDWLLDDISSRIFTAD
UniProt Q9BPX5, whole entry, looked up: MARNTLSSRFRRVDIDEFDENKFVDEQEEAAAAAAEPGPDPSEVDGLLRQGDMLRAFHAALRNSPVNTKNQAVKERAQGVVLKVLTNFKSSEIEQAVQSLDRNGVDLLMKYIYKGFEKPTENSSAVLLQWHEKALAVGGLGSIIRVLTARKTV
UniProt Q9Y6D6: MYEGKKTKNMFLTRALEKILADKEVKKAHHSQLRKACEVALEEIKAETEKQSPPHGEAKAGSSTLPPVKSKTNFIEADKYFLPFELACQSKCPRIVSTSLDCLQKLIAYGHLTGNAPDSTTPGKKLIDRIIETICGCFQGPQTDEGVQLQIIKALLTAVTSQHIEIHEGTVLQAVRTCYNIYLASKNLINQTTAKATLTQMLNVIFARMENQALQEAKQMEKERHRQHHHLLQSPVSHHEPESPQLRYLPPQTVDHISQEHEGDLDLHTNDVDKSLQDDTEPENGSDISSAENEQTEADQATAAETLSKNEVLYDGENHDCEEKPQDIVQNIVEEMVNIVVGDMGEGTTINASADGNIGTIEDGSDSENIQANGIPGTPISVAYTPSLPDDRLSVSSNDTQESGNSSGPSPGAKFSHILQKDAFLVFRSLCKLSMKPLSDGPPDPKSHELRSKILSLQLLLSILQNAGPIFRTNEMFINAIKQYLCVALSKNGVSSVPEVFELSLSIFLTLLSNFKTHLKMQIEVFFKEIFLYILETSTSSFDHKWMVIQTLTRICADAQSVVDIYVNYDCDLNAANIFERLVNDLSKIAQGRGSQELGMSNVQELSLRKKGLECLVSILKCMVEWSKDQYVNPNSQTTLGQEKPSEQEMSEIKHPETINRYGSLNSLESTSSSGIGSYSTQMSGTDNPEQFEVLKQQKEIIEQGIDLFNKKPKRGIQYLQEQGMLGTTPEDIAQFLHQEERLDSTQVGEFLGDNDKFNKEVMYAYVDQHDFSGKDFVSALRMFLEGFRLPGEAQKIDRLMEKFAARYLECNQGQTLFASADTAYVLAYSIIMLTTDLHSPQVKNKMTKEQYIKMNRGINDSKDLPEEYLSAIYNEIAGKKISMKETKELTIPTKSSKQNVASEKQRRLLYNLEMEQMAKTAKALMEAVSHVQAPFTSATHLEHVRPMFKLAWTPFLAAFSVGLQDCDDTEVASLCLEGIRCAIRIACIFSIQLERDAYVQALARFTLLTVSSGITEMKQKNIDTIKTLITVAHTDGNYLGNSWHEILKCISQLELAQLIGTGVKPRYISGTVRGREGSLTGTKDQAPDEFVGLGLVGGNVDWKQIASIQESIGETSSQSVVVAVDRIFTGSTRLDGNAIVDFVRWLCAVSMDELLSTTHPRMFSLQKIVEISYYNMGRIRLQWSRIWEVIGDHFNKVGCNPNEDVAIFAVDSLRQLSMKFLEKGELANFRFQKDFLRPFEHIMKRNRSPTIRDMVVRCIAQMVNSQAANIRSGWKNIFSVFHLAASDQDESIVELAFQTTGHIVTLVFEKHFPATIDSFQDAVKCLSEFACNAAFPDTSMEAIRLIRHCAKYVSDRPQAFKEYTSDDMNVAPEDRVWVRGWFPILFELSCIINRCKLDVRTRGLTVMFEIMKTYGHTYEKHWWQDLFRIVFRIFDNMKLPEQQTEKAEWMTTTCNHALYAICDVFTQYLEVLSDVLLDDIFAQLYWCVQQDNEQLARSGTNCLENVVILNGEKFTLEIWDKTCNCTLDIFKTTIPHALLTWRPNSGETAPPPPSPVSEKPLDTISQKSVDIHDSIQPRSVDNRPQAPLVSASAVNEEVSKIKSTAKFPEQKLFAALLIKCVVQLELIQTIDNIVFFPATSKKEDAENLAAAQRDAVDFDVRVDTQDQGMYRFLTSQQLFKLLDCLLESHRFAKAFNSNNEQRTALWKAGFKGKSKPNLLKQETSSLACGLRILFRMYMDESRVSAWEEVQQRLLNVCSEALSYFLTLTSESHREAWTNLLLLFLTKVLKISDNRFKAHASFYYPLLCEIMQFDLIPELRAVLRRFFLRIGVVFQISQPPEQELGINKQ
UniProt P02654: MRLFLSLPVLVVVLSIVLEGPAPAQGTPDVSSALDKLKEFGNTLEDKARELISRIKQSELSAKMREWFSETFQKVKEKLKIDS
UniProt Q96AK3: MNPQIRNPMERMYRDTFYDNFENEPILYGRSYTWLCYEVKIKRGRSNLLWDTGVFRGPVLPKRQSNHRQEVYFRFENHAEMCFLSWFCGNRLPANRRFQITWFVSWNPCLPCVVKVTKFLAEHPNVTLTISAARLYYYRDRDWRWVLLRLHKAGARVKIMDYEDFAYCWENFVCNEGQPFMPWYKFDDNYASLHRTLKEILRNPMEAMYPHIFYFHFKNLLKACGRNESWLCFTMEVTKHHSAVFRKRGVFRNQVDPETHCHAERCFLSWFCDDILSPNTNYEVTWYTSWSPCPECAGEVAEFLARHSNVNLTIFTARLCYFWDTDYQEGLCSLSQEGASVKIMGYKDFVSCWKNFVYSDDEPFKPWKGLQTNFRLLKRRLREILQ
UniProt Q13510, whole entry, looked up: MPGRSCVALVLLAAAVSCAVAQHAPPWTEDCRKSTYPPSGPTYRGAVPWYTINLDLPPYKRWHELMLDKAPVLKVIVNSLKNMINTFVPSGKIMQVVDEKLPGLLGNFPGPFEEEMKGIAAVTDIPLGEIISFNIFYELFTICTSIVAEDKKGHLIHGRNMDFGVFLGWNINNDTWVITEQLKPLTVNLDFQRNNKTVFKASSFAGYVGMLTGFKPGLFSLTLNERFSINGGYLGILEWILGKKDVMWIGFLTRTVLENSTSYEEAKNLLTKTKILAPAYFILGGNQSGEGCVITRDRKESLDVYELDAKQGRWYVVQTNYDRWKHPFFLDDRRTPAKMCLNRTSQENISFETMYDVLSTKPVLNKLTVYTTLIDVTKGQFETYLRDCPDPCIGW

Assays:
Assay in all cases: log2 fold change, soluble protein after heating vs DMSO (PISA); higher = thermal stabilisation; K562 lysate, 10 uM; active = over 0.2 and 3.5 SD of the protein, either way, in both replicates (recomputed)
erlotinib = compound: C#Cc1cccc(Nc2ncnc3cc(OCCOC)c(OCCOC)cc23)c1 [erlotinib]
Summary of the method: (§1)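 To prepare the extract, K562 pellets were dounce-homogenised in PBS pH 7.4 with 1 mM MgCl2, giving crude material at 1 mg/mL protein. This was treated with 10 μM compound for 30 min, then heated in aliquots for 3 min over 48°C-58°C before pooling and addition of NP-40 to 0.5% at 4°C. Centrifugation at 21,000xg for 90 min left soluble protein in the supernatant, which TMTpro 16plex LC-MS/MS quantified with equalised channel sums. Results are log-two fold changes in thermal stability compared with solvent controls, from duplicates.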

[1] = compound: C/C(=N\NC(=O)C1=CC(=CC=C1)S(=O)(=O)N2CCOCC2)/C3=C(C=CC(=C3)Cl)O
Summary of the method: as §1

[2] = compound: C1=CC(=CC=C1C2=NC3=C(N2)C=C(C=C3)C(=O)N)OC4=CC=C(C=C4)Cl
Summary of the method: as §1

[3] = compound: C1=CC2=C(C=CC(=C2)/C=C\3/C(=O)NC(=NCC4=CC=CS4)S3)N=C1
Summary of the method: as §1

[4] = compound: C1=CC2=NC=CN=C2C=C1/C=C/3\C(=O)NC(=O)S3
Summary of the method: as §1

[5] = compound: C1=CC=C(C=C1)C2=NC(=C(N2)C3=CC=NC=C3)C4=CC(=C(C=C4)Cl)O
Summary of the method: as §1

[6] = compound: C1=CC=C2C(=C1)C3=NNC4=CC=CC(=C43)C2=O
Summary of the method: as §1

[7] = compound: C1CCN(C1)C(=O)NC2=CC=CC(=C2)NC3=NC=C(C(=N3)NCCC4=CN=CN4)Br
Summary of the method: as §1

[8] = compound: C1CN(CCC1(CC2=CC=C(C=C2)Cl)N)C3=NC=NC4=C3C=CN4
Summary of the method: as §1

IRAK-1-4 Inhibitor I = compound: C1COCCN1CCN2C3=CC=CC=C3N=C2NC(=O)C4=CC(=CC=C4)[N+](=O)[O-] [IRAK-1-4 Inhibitor I]
Summary of the method: as §1

ibrutinib = compound: C=CC(=O)N1CCC[C@@H](n2nc(-c3ccc(Oc4ccccc4)cc3)c3c(N)ncnc32)C1 [ibrutinib]
Summary of the method: as §1

[9] = compound: CC(=O)c1cnc2ccc(-c3cc(Cl)c(O)c(Cl)c3)nc2c1N[C@H]1CC[C@H](CN(C)C)CC1
Summary of the method: as §1

ralimetinib = compound: CC(C)(C)Cn1c(N)nc2ccc(-c3[nH]c(C(C)(C)C)nc3-c3ccc(F)cc3)nc21 [ralimetinib]
Summary of the method: as §1

[10] = compound: CC(C)(O)CC(=O)NCCn1ccc2ncnc(Nc3ccc(Oc4cccc(C(F)(F)F)c4)c(Cl)c3)c21
Summary of the method: as §1

[11] = compound: CC(C)C1=C2N=C(C=C(N2N=C1)NCC3=CC=CC=C3)NCCCCCCN
Summary of the method: as §1

[12] = compound: CC1=C(C(CC(=O)N1)C2=CC=C(C=C2)C(F)(F)F)C(=O)NC3=C(C=C4C(=C3)C=NN4)F
Summary of the method: as §1

[13] = compound: CC1=C(C2=C(C=C1)C(=O)C3=CC=CC=C3N2CCCN)C
Summary of the method: as §1

[14] = compound: CC1=C(C=C(C=C1)NC(=O)C2=CC(=CC=C2)C(C)(C)C#N)NC3=CC4=C(C=C3)N=CN(C4=O)C
Summary of the method: as §1

[15] = compound: CC1=C(C=C(C=C1)NC(=O)C2=CC(=CC=C2)N(C)C)NC(=O)C3=CC=C(C=C3)O
Summary of the method: as §1

[16] = compound: CC1=CC=C(C=C1)SC2=C3C=C(SC3=CN=C2)C(=O)N
Summary of the method: as §1

Measured: log2 fold change

ARHGEF18 (UniProt Q6ZSZ5)
inactive: erlotinib -0.007 | [1] 0.042 | [2] 0.025 | [3] -0.058 | [4] -0.016 | [5] 0.038 | [6] -0.05 | [7] -0.011 | [8] 0.048 | IRAK-1-4 Inhibitor I -0.069 | ibrutinib 0.031 | [9] 0.019 | ralimetinib -0.043 | [10] -0.021 | [11] -0.016 | [12] -0.081 | [13] 0 | [14] -0.015 | [15] -0.047 | [16] 0.021

ARHGEF2 (UniProt Q92974)
inactive: erlotinib -0.006 | [1] -0.041 | [2] -0.014 | [3] -0.017 | [4] 0.002 | [5] 0.039 | [6] -0.007 | [7] -0.051 | [8] -0.018 | IRAK-1-4 Inhibitor I -0.005 | ibrutinib 0.028 | [9] -0.003 | ralimetinib 0.043 | [10] 0.005 | [11] 0.014 | [12] 0.008 | [13] -0.034 | [14] 0.047 | [15] 0.018 | [16] 0.01

ARFIP2 (UniProt P53365)
inactive: erlotinib 0.011 | [1] -0.023 | [2] 0.063 | [3] 0.035 | [4] 0.027 | [5] 0.004 | [6] 0.01 | [7] -0.028 | [8] 0.03 | IRAK-1-4 Inhibitor I 0.023 | ibrutinib 0 | [9] -0.006 | ralimetinib 0.065 | [10] -0.023 | [11] -0.02 | [12] 0.028 | [13] 0.062 | [14] -0.045 | [15] 0.034 | [16] -0.014

ARL2BP (UniProt Q9Y2Y0)
inactive: erlotinib -0.032 | [1] -0.049 | [2] -0.028 | [3] 0.014 | [4] 0.056 | [5] -0.017 | [6] -0.021 | [7] 0.034 | [8] 0.04 | IRAK-1-4 Inhibitor I 0.044 | ibrutinib 0.002 | [9] -0.005 | ralimetinib 0 | [10] -0.138 | [11] 0.04 | [12] -0.027 | [13] -0.053 | [14] 0.072 | [15] -0.003 | [16] 0.009

ARL8B (UniProt Q9NVJ2)
inactive: erlotinib -0.04 | [1] -0.026 | [2] 0.04 | [3] 0.029 | [4] 0.004 | [5] -0.029 | [6] -0.032 | [7] -0.003 | [8] 0.024 | IRAK-1-4 Inhibitor I 0.04 | ibrutinib -0.013 | [9] 0.021 | ralimetinib 0.026 | [10] -0.058 | [11] -0.03 | [12] 0.013 | [13] 0 | [14] 0.011 | [15] -0.013 | [16] -0.02

ARPC2 (UniProt O15144)
inactive: erlotinib -0.005 | [1] -0.028 | [2] 0.015 | [3] 0 | [4] 0.005 | [5] -0.004 | [6] 0.015 | [7] 0.006 | [8] -0.006 | IRAK-1-4 Inhibitor I 0.001 | ibrutinib -0.021 | [9] -0.009 | ralimetinib 0.032 | [10] -0.003 | [11] -0.001 | [12] -0.009 | [13] 0.019 | [14] -0.006 | [15] -0.008 | [16] -0.015

ARL2 (UniProt P36404)
inactive: erlotinib 0.004 | [1] 0.058 | [2] 0 | [3] -0.005 | [4] -0.007 | [5] -0.006 | [6] -0.035 | [7] 0.003 | [8] 0.005 | IRAK-1-4 Inhibitor I 0.015 | ibrutinib -0.002 | [9] 0.011 | ralimetinib -0.015 | [10] -0.032 | [11] 0.001 | [12] -0.006 | [13] -0.023 | [14] -0.016 | [15] -0.013 | [16] 0.003

ARPC5L (UniProt Q9BPX5)
inactive: erlotinib 0.001 | [1] -0.048 | [2] 0.041 | [3] 0.007 | [4] -0.032 | [5] -0.012 | [6] -0.05 | [7] -0.011 | [8] 0.031 | IRAK-1-4 Inhibitor I -0.012 | ibrutinib -0.053 | [9] -0.029 | ralimetinib -0.039 | [10] -0.079 | [11] 0.003 | [12] -0.037 | [13] -0.014 | [14] 0.025 | [15] 0.024 | [16] -0.044

Fetched one by one from the list above, two records:
ARL8B (UniProt Q9NVJ2)
inactive: erlotinib -0.04 | [1] -0.026 | [2] 0.04 | [3] 0.029 | [4] 0.004 | [5] -0.029 | [6] -0.032 | [7] -0.003 | [8] 0.024 | IRAK-1-4 Inhibitor I 0.04 | ibrutinib -0.013 | [9] 0.021 | ralimetinib 0.026 | [10] -0.058 | [11] -0.03 | [12] 0.013 | [13] 0 | [14] 0.011 | [15] -0.013 | [16] -0.02

ARL2BP (UniProt Q9Y2Y0)
inactive: erlotinib -0.032 | [1] -0.049 | [2] -0.028 | [3] 0.014 | [4] 0.056 | [5] -0.017 | [6] -0.021 | [7] 0.034 | [8] 0.04 | IRAK-1-4 Inhibitor I 0.044 | ibrutinib 0.002 | [9] -0.005 | ralimetinib 0 | [10] -0.138 | [11] 0.04 | [12] -0.027 | [13] -0.053 | [14] 0.072 | [15] -0.003 | [16] 0.009

The list continues.

APLP2 (UniProt Q06481)
inactive: erlotinib -0.011 | [1] -0.045 | [2] 0.039 | [3] 0.007 | [4] -0.052 | [5] -0.045 | [6] -0.006 | [7] 0 | [8] 0.054 | IRAK-1-4 Inhibitor I 0.038 | ibrutinib 0.029 | [9] 0.043 | ralimetinib -0.015 | [10] -0.074 | [11] -0.018 | [12] 0.043 | [13] 0.045 | [14] 0 | [15] -0.041 | [16] -0.002

ARFGEF1 (UniProt Q9Y6D6)
inactive: erlotinib 0.008 | [1] 0.003 | [2] -0.023 | [3] 0.017 | [4] -0.006 | [5] -0.006 | [6] -0.044 | [7] -0.015 | [8] -0.004 | IRAK-1-4 Inhibitor I 0.005 | ibrutinib -0.023 | [9] -0.003 | ralimetinib 0.025 | [10] -0.016 | [11] -0.016 | [12] 0.035 | [13] 0.002 | [14] 0.011 | [15] 0.013 | [16] -0.011

APOC1 (UniProt P02654)
inactive: erlotinib 0.068 | [1] -0.098 | [2] -0.006 | [3] 0.071 | [4] -0.156 | [5] 0.001 | [6] 0.054 | [7] -0.075 | [8] 0.024 | IRAK-1-4 Inhibitor I 0.001 | ibrutinib 0.015 | [9] -0.143 | ralimetinib 0.012 | [10] -0.022 | [11] 0.131 | [12] 0.148 | [13] -0.018 | [14] 0.016 | [15] -0.03 | [16] -0.017

ARHGAP17 (UniProt Q68EM7)
inactive: erlotinib 0.016 | [1] 0.017 | [2] -0.025 | [3] 0.022 | [4] 0.016 | [5] 0.019 | [6] -0.02 | [7] 0.036 | [8] 0.002 | IRAK-1-4 Inhibitor I -0.005 | ibrutinib -0.009 | [9] 0.022 | ralimetinib -0.015 | [10] -0.01 | [11] -0.053 | [12] 0.026 | [13] 0.012 | [14] -0.003 | [15] 0.019 | [16] 0.032

AP5Z1 (UniProt O43299)
inactive: erlotinib 0.024 | [1] -0.023 | [2] 0.029 | [3] -0.043 | [4] 0 | [5] -0.004 | [6] -0.061 | [7] -0.06 | [8] 0.064 | IRAK-1-4 Inhibitor I 0.065 | ibrutinib 0.016 | [9] -0.151 | ralimetinib -0.009 | [10] -0.047 | [11] -0.028 | [12] -0.023 | [13] -0.143 | [14] 0.162 | [15] 0.028 | [16] -0.133

APOBEC3D (UniProt Q96AK3)
inactive: erlotinib 0 | [1] -0.023 | [2] 0.041 | [3] -0.059 | [4] -0.054 | [5] 0.03 | [6] -0.023 | [7] -0.009 | [8] -0.014 | IRAK-1-4 Inhibitor I -0.064 | ibrutinib -0.087 | [9] -0.022 | ralimetinib -0.037 | [10] -0.01 | [11] 0.098 | [12] -0.007 | [13] -0.034 | [14] 0.032 | [15] 0.032 | [16] 0.05

ASAH1 isoform 2 (UniProt Q13510)
inactive: erlotinib 0.02 | [1] -0.062 | [2] 0.036 | [3] -0.03 | [4] -0.041 | [5] -0.027 | [6] 0.027 | [7] 0.034 | [8] 0.011 | IRAK-1-4 Inhibitor I 0.016 | ibrutinib -0.058 | [9] -0.042 | ralimetinib 0.038 | [10] -0.011 | [11] 0.039 | [12] 0.104 | [13] 0.017 | [14] 0.016 | [15] -0.045 | [16] 0.037
